This data set is described as follows: Appearance / color change of treated samples compared to untreated. Conditions: Petitgrain oil; 0.2 mL in 10 mL.

As to `COCCOCCN(CCOCCOC)CCOCCOC.COCCOCCN(CCOCCOC)CCOCCOC.O=C(O)CCC(=O)C(=O)O` [AKG-diTMEEA], the “Appearance of Treated Compared to Untreated Sample” value is “Clear, same color”.

The values above are taken from US12435294B2, “Prevention of the oxidation of perfumery raw materials and food raw materials” (Firmenich SA, priority 2018, dated 2025).
